Results deposited as PubChem BioAssay AID504791 (Drosophila RNAi Screening Center, 2011)

Test: 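Factors in Argonaute-based small RNA production and activity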 (primary screen)
System: Drosophila S2-derived reporter cells
Reagents: long dsRNA against Drosophila genes, about 150-250 ng dsRNA per well (siRNA assay); about 80-120 ng (miRNA assay)
Duration: about 5 days (siRNA assay); about 4 days (miRNA assay)
Conditions: copper sulfate induction of reporters: 25 µM (siRNA assay); 200 mM stated (miRNA assay), 1-2 days before reading
Read-out: 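Dual luciferase assay: Renilla to firefly signal ratio in each well, scaled to the mean ratio of its plate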
Reading the numbers: siRNA reporter hit score: higher = 3 marks a strong hit with raised ratio; -3 a strong hit with lowered ratio
Active means: 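a well was a first-pass pick when its plate-scaled ratio rose above 1.5 (siRNA assay) or 1.6 (miRNA assay), or dropped below 0.6; a gene counted only if two separate dsRNAs agreed on retest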
The screen tested about 23,000 reagents; shown is a random part of those with a known target gene and a result. Of all reagents, 199 (0.86%) got an active call. 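Plate-scaled ratios behind the calls are not deposited; printed light signals are raw; many rows marked increased or decreased are still called inactive.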 Reagents against one gene are numbered here. Names joined by + are all predicted targets of the reagent.

gene knocked down | reagent | siRNA reporter hit score | stable siRNA reporter change | miRNA reporter change | stable assay Renilla, run 1 (luminescence) | stable assay firefly, run 1 (luminescence) | activity call
Gr93a | 1 | – | – | – | 7167 | 3.33e5 | inactive
Rpi | 1 | – | – | – | 4848 | 3.07e5 | inactive
tara | 1 | – | – | – | 5983 | 3.41e5 | inactive
tara | 2 | – | – | – | 3075 | 3.16e5 | inactive
tara | 3 | – | – | reporter ratio lowered past the hit cutoff | – | – | inactive
CG13031 | 1 | – | – | – | 7592 | 3.30e5 | inactive
Rme-8 | 1 | – | reporter ratio lowered past the hit cutoff | – | 6951 | 5.91e5 | inactive
Buffy | 1 | – | – | – | 5543 | 3.30e5 | inactive
Ttc7 | 1 | – | – | – | 2.18e5 | 1.22e6 | inactive
Vps13D | 1 | – | – | – | 5372 | 4.70e5 | inactive
Vps13D | 2 | – | – | – | 5371 | 4.06e5 | inactive
CG31715 | 1 | – | – | – | 8218 | 4.10e5 | inactive
CG2991 | 1 | – | – | – | 9615 | 2.85e5 | inactive
kappaB-Ras + CG30503 | 1 | – | – | – | 6650 | 3.40e5 | inactive
kappaB-Ras + CG30503 | 2 | – | – | – | 5230 | 2.92e5 | inactive
CG3662 | 1 | – | – | – | 11286 | 6.24e5 | inactive
Rcd-1 | 1 | – | – | – | 7151 | 4.00e5 | inactive
CG5853 | 1 | – | – | – | 6120 | 4.03e5 | inactive
CG5853 | 2 | – | – | – | 7684 | 2.89e5 | inactive
Gr59c | 1 | – | – | – | 5520 | 3.02e5 | inactive
THADA | 1 | – | – | – | 6846 | 4.59e5 | inactive
CG11841 | 1 | – | – | – | 8459 | 6.52e5 | inactive
squ | 1 | – | – | – | 4351 | 4.25e5 | inactive
Asciz | 1 | – | – | – | 7118 | 4.61e5 | inactive
CG7332 | 1 | – | – | – | 7507 | 4.72e5 | inactive
Teh2 | 1 | – | – | – | 5212 | 3.35e5 | inactive

4 entries from above, reduced to “stable assay Renilla, run 1 (luminescence)”.
CG13031	7592
Rme-8	6951
Buffy	5543
Ttc7	2.18e5

The listing continues.
gene knocked down | reagent | siRNA reporter hit score | stable siRNA reporter change | miRNA reporter change | stable assay Renilla, run 1 (luminescence) | stable assay firefly, run 1 (luminescence) | activity call
CG43707 | 1 | – | – | – | 6114 | 3.11e5 | inactive
CG43707 | 2 | – | – | – | 7002 | 4.72e5 | inactive
dmrt93B | 1 | – | – | – | 6656 | 3.65e5 | inactive
Nt5b | 1 | – | reporter ratio lowered past the hit cutoff | – | 3868 | 3.78e5 | inactive
Nt5b | 2 | – | – | – | 5139 | 4.42e5 | inactive
Nt5b | 3 | – | – | – | 5506 | 4.26e5 | inactive
Nt5b | 4 | – | – | – | 4451 | 4.65e5 | inactive
CG15676 | 1 | – | – | – | 6791 | 4.23e5 | inactive
CG12814 | 1 | – | – | – | 7442 | 4.23e5 | inactive
CG12814 | 2 | – | – | – | 6275 | 4.70e5 | inactive
Cox17 | 1 | – | – | – | 4555 | 4.41e5 | inactive
CG3916 | 1 | – | – | – | 6080 | 3.54e5 | inactive
acs | 1 | – | – | – | 6119 | 4.34e5 | inactive
CG18540 | 1 | – | – | – | 5247 | 3.16e5 | inactive
CG4576 | 1 | – | – | – | 6734 | 3.22e5 | inactive
Rab10 | 1 | – | – | reporter ratio raised past the hit cutoff | 6419 | 3.23e5 | inactive
CG13065 | 1 | – | – | – | 7688 | 3.46e5 | inactive
Ncoa6 | 1 | 3 | – | – | 58625 | 1.32e5 | inactive
Ncoa6 | 2 | – | – | – | 3715 | 2.61e5 | inactive
CG11858 | 1 | – | – | – | 5188 | 4.63e5 | inactive
pch2 | 1 | – | – | – | 6702 | 4.30e5 | inactive
CG8960 | 1 | – | – | – | 11902 | 4.43e5 | inactive
Stt3B | 1 | – | – | – | 7066 | 4.16e5 | inactive
smal | 1 | – | – | – | 5311 | 4.01e5 | inactive
smal | 2 | – | – | – | 6156 | 2.76e5 | inactive
smal | 3 | – | – | – | 6355 | 3.78e5 | inactive
smal | 4 | – | – | – | 6571 | 3.19e5 | inactive
smal | 5 | – | – | – | 5324 | 5.07e5 | inactive
Caf1-55 | 1 | – | reporter ratio raised past the hit cutoff | – | 8221 | 2.83e5 | active
alpha-Spec | 1 | – | – | – | 7962 | 3.10e5 | inactive
Bicra | 1 | – | – | – | 6212 | 3.02e5 | inactive
